Our source for the cell number change and AC50 values is PubChem BioAssay AID2685 (National Center for Advancing Translational Sciences (NCATS), 2010).

The other results are listed elsewhere or left out. Further columns of the screen follow, without active or inactive calls. Compounds called inactive in the main read-out are mostly missing here. Potencies come from curve fits of mixed quality, noted in brackets.

The nature of the assay: qHTS Assay for Lipid Storage Modulators in Drosophila S3 Cells.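 As to cell number change: cells counted by Cell Tracker Red CMTPX staining in the red channel.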 Conditions: BODIPY lipid droplet fluorescence, 18-24 h; for cell number change: measured here: cell count max response, cells fed with added oleic acid. Summed up:
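Drosophila S3 cells got compounds at several concentrations plus oleic acid (400 uM solution). Laser-scanning cytometry with 488 nm excitation read lipid droplets at 500-530 nm and cells at 575-640 nm. Percent activity was relative to 20 uM Triacsin C.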
A general note: Quantitative high-throughput screening tests each substance at several concentrations.

Where [1] appears, read: measured here: lipid fluorescence (Fed channel) AC50, cells fed with added oleic acid.
The mark [2] stands for this setting: measured here: cell number channel AC50, cells fed with added oleic acid.

As a reminder, the AC50 is the concentration giving half of the maximal activity seen.

For `COc1cc(OC)cc(C(=O)Nc2ccc(S(=O)(=O)N(C)C)cc2)c1`, the cell number change is 22.2%. For the same compound, the AC50 under setting [1] is 29.1 µM [rising, single point].

As for `O=C(Nc1ccc(OC(F)(F)F)cc1)c1cccc(-n2cnnn2)c1`, under setting [2], the AC50 was 2.91 µM [rising, single point]. Regarding `NC(=O)COc1ccc(NS(=O)(=O)Cc2ccccc2)cc1`, the cell number change is -19.7%. Further, the AC50 under setting [1] was 6.51 µM [rising, single point]. In the case of `CCCc1nnc(SCC(=O)Nc2ccccc2Cl)n1CC1CCCO1` (stereo not given), the cell number change was 5.88%. Besides, the AC50 under setting [1] was 0.411 µM [rising, full curve]. For `Cc1ccc(NC(=O)[C@H](NC(=O)[C@@H]2Cc3ccccc3CN2)c2ccccc2)cc1`, the cell number change is -4.18%. In addition, the AC50 under setting [1] was 3.66 µM [rising, full curve].

`Cc1ccc(SCC(=O)Nc2cccc(NC(=O)c3ccco3)c2)cc1`: the cell number change was -7.96%. The AC50 under setting [1] was 16.4 µM [rising, single point].

Take `CCOC(=O)N1CCC(NC(=O)c2ccc3snnc3c2)CC1`: the AC50 under setting [2] is 3.26 µM [rising, partial curve, poor fit]. For the compound `NC(=O)CCCn1c(C(=O)c2cc(Cl)c(N)c(Cl)c2)c2ccc([N+](=O)[O-])cc2[n+]1[O-]`, the AC50 under setting [1] is 29.1 µM [rising, single point]. Consider `CCCOC(=O)c1c(NC(=O)CSc2nc(-c3ccco3)cc(C(F)(F)F)n2)sc(C(=O)OC)c1C`, for which the cell number change amounted to 49%. Besides, the AC50 under setting [2] is 0.092 µM [rising, full curve]. For the same compound, the AC50 under setting [1] is 0.13 µM [rising, full curve, poor fit]. For the compound `CC(C)(C)NC(=O)Cn1nnc(-c2ccc(OCc3c(F)cccc3Cl)cc2)n1`, the AC50 under setting [2] is 0.731 µM [falling, partial curve, poor fit]. Take `O=C(c1ccc(Br)c([N+](=O)[O-])c1)N1CCN(Cc2ccccc2)CC1`: the cell number change was -20.8%. In addition, the AC50 under setting [1] is 29.1 µM [falling, single point]. As to `CN1c2ccccc2C(O)=C(C(=S)Nc2ccc(Cl)cc2)S1(=O)=O`, the cell number change was -46.6%. Moreover, under setting [2], the AC50 was 23.1 µM [falling, single point]. Besides, under setting [1], the AC50 was 29.1 µM [falling, single point]. Regarding `COc1ccc(-c2nnc(SCC(=O)Nc3cc(C)on3)n2C)cc1OC`, the AC50 under setting [2] is 3.26 µM [rising, partial curve, poor fit]. As for `O=C(Cn1[nH]c(=O)c2ccccc2c1=O)OCC(=O)N1CCc2ccccc2C1`, the cell number change came to 8.3%. In the case of `O=c1c(CN2CCN(Cc3ccccc3F)C(CCO)C2)coc2ccccc12` (stereo not given), the cell number change stood at 3.37%. Besides, the AC50 under setting [1] was 0.164 µM [rising, full curve, poor fit]. With `Cc1ccccc1S(=O)(=O)c1cc2ccccc2nc1N`, the AC50 under setting [1] is 0.794 µM [rising, single point]. Take `CCOc1ccc(CCNC(=O)c2cccc3c2C(=O)N(CCOC)C3)cc1OCC`: the cell number change came to 39%. The AC50 under setting [1] is 29.1 µM [rising, single point]. On to `CSc1ccc(NC(=O)N2CCC(C(=O)c3ccc(F)cc3)CC2)cc1`, for which the cell number change was 17.5%. Moreover, the AC50 under setting [1] was 1.16 µM [falling, single point]. For `COc1ccc(/C=C2\Oc3cc(OCC(=O)N4CCC(C(=O)O)CC4)ccc3C2=O)c(OC)c1`, the cell number change was -8.74%. `CCN(C(=O)CCN1C(=O)S/C(=C\c2ccccc2)C1=O)C1CCS(=O)(=O)C1` (stereo not given): the cell number change was determined as 4.58%. The AC50 under setting [1] is 1.84 µM [rising, partial curve]. As for `COc1ccc(NC(=O)CCCC(=O)NCCc2ccc(OC)c(OC)c2)cc1`, the cell number change was -2.1%. For the same compound, the AC50 under setting [1] was 16.4 µM [falling, single point]. Turning to `COc1ccc(-c2nsc3c(N4CCCC4)ncnc23)cc1`, the cell number change was -1.35%. Besides, the AC50 under setting [1] is 0.82 µM [rising, full curve]. Consider `Cc1ccc2c(c1)N(CC(=O)N1CCCCC1C)C(=O)CO2` (stereo not given), for which the cell number change was -21.8%. In addition, the AC50 under setting [1] is 0.116 µM [rising, single point]. In the case of `Cc1ccc(NC(=S)NNC(=O)c2nnn(-c3ccccc3)c2C)cc1`, the cell number change was 13.8%. The AC50 under setting [1] was 0.58 µM [rising, single point].

For `CCn1c(NC(=O)c2cccs2)c(-c2cccs2)c(=O)c2ccccc21`, the cell number change worked out at 32.4%. Also, the AC50 under setting [2] was 13 µM [rising, partial curve, poor fit]. As to `CS(=O)(=O)N(CC(=O)Nc1ccc(S(=O)(=O)N2CCCC2)cc1)c1ccccc1`, the cell number change is -34.4%. Further, under setting [2], the AC50 is 29.1 µM [falling, single point]. Further, the AC50 under setting [1] is 0.103 µM [falling, full curve, poor fit]. In the case of `COC(=O)c1ccc(CO/N=C/c2ccc(OC)cc2OC)cc1`, the cell number change stood at 7.59%. Under setting [1], the AC50 is 8.2 µM [rising, partial curve, poor fit]. On to `COCCOC(=O)C1=C(C)NC(=O)NC1c1c(F)cccc1Cl` (stereo not given), for which the cell number change is -16.5%. Moreover, the AC50 under setting [1] is 0.366 µM [rising, full curve, poor fit]. On to `CN1CCN(CC(=O)NN(Cc2ccccc2)c2ccccc2)CC1`, for which the cell number change was -16.2%. For the same compound, the AC50 under setting [1] is 4.11 µM [falling, full curve]. For `CCOc1ccc(C(=O)NCC(=O)OCc2c(F)cccc2Cl)cc1`, the cell number change is -1.18%. Further, under setting [1], the AC50 is 0.366 µM [rising, full curve]. Consider `CSCC[C@H](NC(=O)C1CCN(S(=O)(=O)c2ccc(C)cc2)CC1)C(=O)NCC1CCCO1` (stereo not given in full), for which the cell number change was determined as 37.1%. Further, the AC50 under setting [2] is 0.0058 µM [rising, full curve, poor fit]. Further, the AC50 under setting [1] was 0.146 µM [falling, full curve, poor fit]. For `COc1ccc(-n2c(COc3ccc4c(c3)OCO4)nnc2SCC(=O)O)cc1`, the cell number change is -34.8%. Also, the AC50 under setting [2] was 16.4 µM [falling, single point]. As to `COc1cc2c(cc1NC(=O)COC(=O)[C@@H](NS(=O)(=O)c1cccc(Cl)c1)C(C)C)oc1ccccc12`, the cell number change is -4.45%. Moreover, the AC50 under setting [1] was 32.6 µM [falling, single point]. Take `Cc1ccc(C2c3[nH]c4ccccc4c3C[C@H]3C(=O)N(c4ccccc4C(=O)N4CCC[C@@H]4C(=O)O)C(=O)N23)cc1` (stereo not given in full): the cell number change amounted to 10.6%. Take `CCOC(=O)c1c(N)sc2c(OC)c(Br)ccc12`: the cell number change is -70.9%. Besides, the AC50 under setting [2] was 16.4 µM [falling, partial curve]. Also, under setting [1], the AC50 is 18.4 µM [falling, single point]. For `CN(C)C(=O)CSCc1c(Cl)cccc1Cl`, the cell number change stood at 46%. Also, under setting [2], the AC50 was 23.1 µM [rising, single point]. For the compound `CCN1CCN(C(=O)CN(CCc2ccccc2)S(C)(=O)=O)CC1`, the cell number change was -21%. In addition, the AC50 under setting [1] is 20.6 µM [falling, partial curve, poor fit].
